Source: paper PMC13371181, “A paracrine-to-autocrine shunt of GREM1 fuels colorectal cancer metastasis via ACVR1C” (Molecular Cancer, 2026)

Target: T1, HA-mCherry-tagged GREM1 (Gremlin 1) (human) (UniProt O60565)
T1 sequence: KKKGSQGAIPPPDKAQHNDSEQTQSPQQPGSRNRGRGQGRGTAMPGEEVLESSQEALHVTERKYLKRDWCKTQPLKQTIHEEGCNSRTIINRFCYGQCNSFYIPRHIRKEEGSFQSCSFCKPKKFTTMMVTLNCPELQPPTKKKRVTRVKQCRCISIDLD
Assay: affinity purification with mass spectrometry; lysate of HCT116 cells transfected with HA-mCherry-GREM1, anti-HA magnetic beads, NP40 lysis buffer, overnight 4 °C; a ~110 kDa Coomassie band submitted for MS

binding: binds
B1: activin A receptor type 1C (ACVR1C), endogenous in HCT116 (receptor, UniProt Q8NER5 21-493)
chain: ELSPGLKCVCLLCDSSNFTCQTEGACWASVMLTNGKEQVIKSCVSLPELNAQVFCHSSNNVTKTECCFTDFCNNITLHLPTASPNAPKLGPMELAIIITVPVCLLSIAAMLTVWACQGRQCSYRKKKRPNVEEPLSECNLVNAGKTLKDLIYDVTASGSGSGLPLLVQRTIARTIVLQEIVGKGRFGEVWHGRWCGEDVAVKIFSSRDERSWFREAEIYQTVMLRHENILGFIAADNKDNGTWTQLWLVSEYHEQGSLYDYLNRNIVTVAGMIKLALSIASGLAHLHMEIVGTQGKPAIAHRDIKSKNILVKKCETCAIADLGLAVKHDSILNTIDIPQNPKVGTKRYMAPEMLDDTMNVNIFESFKRADIYSVGLVYWEIARRCSVGGIVEEYQLPYYDMVPSDPSIEEMRKVVCDQKFRPSIPNQWQSCEALRVMGRIMRECWYANGAARLTALRIKKTISQLCVKEDCKA

These are yes or no findings as the source states them, for the method shown. In cells and extracts the contact can be indirect. These calls come from enrichment with a bait or labelling near it, and not all partners need be listed. Where a sequence is shown, tags or fusion partners need not be part of it.
